# Percent effect of library compounds

By UniProt entry, the sequences of proteins in these tests, tags left out. Residues count along the entry.
UniProt Q4DA54, 1-478: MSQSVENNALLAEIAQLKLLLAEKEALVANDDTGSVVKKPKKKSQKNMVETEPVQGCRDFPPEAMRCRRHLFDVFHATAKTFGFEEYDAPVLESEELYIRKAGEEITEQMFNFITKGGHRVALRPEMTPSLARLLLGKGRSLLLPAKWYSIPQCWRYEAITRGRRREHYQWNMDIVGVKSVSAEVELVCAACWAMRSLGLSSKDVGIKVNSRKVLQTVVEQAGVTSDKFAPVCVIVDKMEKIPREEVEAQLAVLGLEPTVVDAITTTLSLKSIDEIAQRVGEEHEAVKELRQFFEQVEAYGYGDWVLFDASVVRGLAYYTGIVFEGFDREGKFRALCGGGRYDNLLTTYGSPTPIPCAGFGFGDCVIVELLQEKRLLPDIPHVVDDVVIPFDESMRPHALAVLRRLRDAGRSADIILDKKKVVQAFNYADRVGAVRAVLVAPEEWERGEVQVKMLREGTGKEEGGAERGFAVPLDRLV
UniProt P9WPC5, whole entry: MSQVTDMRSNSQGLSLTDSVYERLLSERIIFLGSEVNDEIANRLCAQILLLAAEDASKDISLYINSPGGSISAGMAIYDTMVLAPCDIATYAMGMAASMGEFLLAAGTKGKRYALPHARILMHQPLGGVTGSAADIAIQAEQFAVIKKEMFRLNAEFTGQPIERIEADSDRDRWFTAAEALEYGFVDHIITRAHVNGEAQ
UniProt P9WPC3, whole entry partner: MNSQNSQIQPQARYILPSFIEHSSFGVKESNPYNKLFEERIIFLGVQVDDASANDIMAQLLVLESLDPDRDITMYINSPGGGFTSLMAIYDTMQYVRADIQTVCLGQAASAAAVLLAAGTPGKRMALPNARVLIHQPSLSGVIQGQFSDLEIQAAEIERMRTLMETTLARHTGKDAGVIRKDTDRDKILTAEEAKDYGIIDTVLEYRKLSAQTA
UniProt Q8IDJ8, 1-583: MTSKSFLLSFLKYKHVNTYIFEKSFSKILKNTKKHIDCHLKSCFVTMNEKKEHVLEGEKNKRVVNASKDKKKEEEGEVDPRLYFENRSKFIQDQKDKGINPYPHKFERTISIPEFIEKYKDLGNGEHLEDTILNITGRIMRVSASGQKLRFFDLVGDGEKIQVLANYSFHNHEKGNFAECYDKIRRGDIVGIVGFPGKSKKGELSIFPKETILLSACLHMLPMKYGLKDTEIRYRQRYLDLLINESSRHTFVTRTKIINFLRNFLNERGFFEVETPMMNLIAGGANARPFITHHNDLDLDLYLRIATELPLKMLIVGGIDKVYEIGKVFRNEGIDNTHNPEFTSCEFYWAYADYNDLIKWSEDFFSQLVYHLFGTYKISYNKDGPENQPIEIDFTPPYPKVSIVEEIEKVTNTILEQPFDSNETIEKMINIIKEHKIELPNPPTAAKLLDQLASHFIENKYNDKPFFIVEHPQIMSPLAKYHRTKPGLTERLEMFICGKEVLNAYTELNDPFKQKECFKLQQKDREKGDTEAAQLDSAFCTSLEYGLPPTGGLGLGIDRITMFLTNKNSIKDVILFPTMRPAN
UniProt A4I591, 1-473: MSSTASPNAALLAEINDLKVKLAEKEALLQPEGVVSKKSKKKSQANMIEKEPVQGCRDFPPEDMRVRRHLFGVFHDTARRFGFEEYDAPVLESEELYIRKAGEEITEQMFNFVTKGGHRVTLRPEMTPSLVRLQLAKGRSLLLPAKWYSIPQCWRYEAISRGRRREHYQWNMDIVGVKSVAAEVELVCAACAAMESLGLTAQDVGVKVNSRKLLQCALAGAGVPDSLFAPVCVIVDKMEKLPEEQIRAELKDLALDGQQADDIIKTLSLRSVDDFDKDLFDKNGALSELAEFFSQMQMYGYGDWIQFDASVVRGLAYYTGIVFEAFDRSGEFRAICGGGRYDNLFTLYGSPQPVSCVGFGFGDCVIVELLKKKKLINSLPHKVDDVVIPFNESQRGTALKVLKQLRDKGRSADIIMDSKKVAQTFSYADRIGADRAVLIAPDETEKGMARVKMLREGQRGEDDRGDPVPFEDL

Values are the deposited “Percent Effect”, in %.
The record does not define 0% and 100%; most values in the screen are far below 50% and negative numbers occur (in some assays of this library far below -100).
This is an unselected part of the compounds tested.

TcHisRS: 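Enzyme assay of histidyl-tRNA synthetase; the read-out is not stated. Target: Histidine-tRNA ligase, Trypanosoma cruzi CL Brener (UniProt Q4DA54). Compounds at 30 µM. The record gives no direction; compounds that gave an IC50 in retests scored well above the rest, so higher reads as stronger inhibition. Size under these conditions: about 69,000 compounds, about 31 of them at 50% or above in at least one test.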
ClpP1P2: 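ClpP1P2, Mycobacterium tuberculosis (UniProt P9WPC5 and UniProt P9WPC3). Protease assay of ClpP1P2, read by the AMC dye that it sets free. Compounds at 50 µM. Direction is inferred from only a few compounds that gave an IC50; most scored high, so higher reads as stronger inhibition. Most other retested compounds had strongly negative values. Size under these conditions: about 69,000 compounds, about 10 of them at 50% or above in at least one test.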
PfKRS1: 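Enzyme assay of the cytosolic lysyl-tRNA synthetase in 384-well plates, read by luminescence. Target: Lysine-tRNA ligase, Plasmodium falciparum 3D7 (UniProt Q8IDJ8). Concentration: 30 µM. Direction is inferred from only a few compounds that gave an IC50; most scored high, so higher reads as stronger inhibition. Size under these conditions: about 69,000 compounds, about 49 of them at 50% or above in at least one test.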
LiHisRS: 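Enzyme assay of histidyl-tRNA synthetase; the read-out is not stated. Target: Histidine-tRNA ligase, Leishmania infantum (UniProt A4I591). Concentration: 30 µM. Higher reads as stronger inhibition (inferred: compounds with an IC50 in retests scored well above the rest). The assay is labelled LdHisRS but filed under L. infantum. About 69,000 compounds were tested under these conditions; 0.6% (about 410) showed 50% or more at least once.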

compound | TcHisRS | ClpP1P2 | PfKRS1 | LiHisRS
Cc1ccc(C(=O)N2CCC3(CCCCC3)C2)c(=O)[nH]1 | -64.42 | -5.695 | 4.42 | 14.81
O=C(c1cc(-n2cccn2)ccn1)N(CC1CCC1)CC(F)(F)F | 3.867 | -4.814 | 2.844 | 6.25
Cc1nc(N(C)C)nc2c1COCC21CCN(C(=O)NC(C)C)C1 (stereo unspecified) | 3.743 | -1.766 | 10.87 | 21.15
O=C(O)c1nnn(-c2cccc(C(F)(F)F)c2)c1-c1ccncc1 | -1.22 | 8.211 | -0.4258 | -10.53
Cc1nnc2ccc(C(=O)N3CCSC(C)(C)C3)cn12 | 4.762 | -0.8256 | -5.228 | -5.882
O=C([C@@H](O)Cc1ccccc1)N1CCCn2cncc2C1 | 0.8 | -3.204 | -0.7077 | 9.836
COc1ccc(C)c(NC(=O)NCc2cccc(N(C)C)n2)c1 | 7.937 | -1.541 | -0.6077 | 19.18
Cc1ccc(CN2C[C@@H]3CN(C(=O)c4cccn4C)C[C@@H]3C2)cc1 | 1.942 | -2.208 | 4.047 | 0
C1CN(c2nc3c(c(NC4CC4)n2)CN(CC2CCOC2)CC3)CCO1 (stereo unspecified) | 4.301 | 6.567 | 4.619 | 15.04
CCOC[C@@]12CCC[C@@H]1CN(C(=O)c1ccc(OC)cc1)C2 | 5.291 | 6.564 | 0 | 13.64
CNc1cc(C)nc(N2CCC3(CC2)[C@H](O)C[C@@H]3OCCN(C)C)n1 | 5.82 | -8.34 | 2.379 | -2.941
Cc1ncsc1-c1nnc(C2CCN(Cc3ccccc3)CC2)o1 | 3.297 | 0.3618 | 0.1034 | 13.04
CSc1ccccc1CN1CCn2nc(CNC(=O)N(C)C)cc2C1 | -2.439 | -4.473 | -5.001 | -6.024
CNc1cccc(C2CCCN(C(=O)c3cscn3)C2)n1 (stereo unspecified) | 6.667 | 12.7 | 2.791 | 22.68
O=C1CC(N2CCN(c3ccc(F)cc3)CC2)C(=O)N1Cc1cccs1 (stereo unspecified) | 6.186 | -1.209 | 0.2972 | 12.64
Cn1cc(CN2CCCC(CCc3ccc(F)cc3)C2)cn1 (stereo unspecified) | 1.093 | 5.699 | -3.1 | 27.4
Cc1ccc(-c2noc(C3CCN3C(=O)c3ccn(C)n3)n2)s1 (stereo unspecified) | 3.955 | -15.8 | 0.5517 | 13.99
COCC(=O)N1CCC(c2cc(C(F)(F)F)c3c(C)noc3n2)CC1 | 7.491 | 10.99 | -2.229 | 24
N#Cc1ccc(N2CCCC3(CCC(=O)N3CC3CC3)CC2)nc1 (stereo unspecified) | 6.533 | 11.31 | 0.9152 | 11.88
CN1CC(C(=O)NCc2ccc(Br)cc2F)CC1=O (stereo unspecified) | 6.468 | -0.05403 | 1.964 | 15.66
Cc1nnc(C(C)N(C)Cc2c(C)nn(-c3ccccc3C)c2C)o1 (stereo unspecified) | 3.279 | 7.027 | 2.904 | 13.7
CC(c1ccon1)N(C)C(=O)C1CCN(CC(N)=O)CC1 (stereo unspecified) | 11.11 | 2.888 | 0.1073 | 17.2
CNC(=O)N1CCC(NC(=O)c2cnn(C)c2)CC1 | 3.152 | 17.78 | -0.427 | 10.53
Cc1cccc(CC(=O)N2CCCC(c3n[nH]c4nccnc34)C2)c1 (stereo unspecified) | 14.89 | -2.856 | 7.337 | 21.88
COc1ncccc1CNC(=O)c1cc(C)on1 | 3.198 | -71.72 | -0.8257 | 13.16
CN(C)S(=O)(=O)N1CCCCCC1c1cc(-c2ccc(F)cc2)no1 (stereo unspecified) | -5.085 | -14.07 | 2.018 | 5.594
CCS(=O)(=O)c1cccc(C(=O)Nc2cccc3c2C(=O)N(C)C3=O)c1 | 0.5181 | 13.93 | 0.4323 | 21.51
COC1CCN(C(=O)Cn2ccc3ccccc32)CC1 | 4.124 | 1.201 | -0.8262 | 6.957
O=c1ccc(-c2ccccc2F)nn1CCN1CCCS1(=O)=O | -1.695 | -0.2486 | 2.79 | 16.98
CSCC(=O)N1CCCC(n2ccnc2C(C)C)C1 (stereo unspecified) | 2.273 | 5.635 | 3.327 | 28.79
Cc1csc(C(=O)N2CC[C@H](Oc3cccnc3C)[C@@H](O)CC2)c1 | 2.198 | -1.763 | -0.8033 | 18.84
Cc1nc2oc(C(=O)N3CCCC3)c(N)c2c2c1CCCC2 | 8 | -44.86 | 0.8293 | 13.04
Cc1ccc2nnc(C(=O)NCCCn3cccn3)nc2c1 | 7.018 | 15.43 | 13.26 | 37.17
O=C1N(CCCc2ccccc2)CCCC1(O)CN1CCC(CO)CC1 (stereo unspecified) | 0 | -0.6366 | 0.7008 | 13.11
COCCN1C[C@@H](C(=O)O)[C@H](c2ccccc2C)C1 | 12.35 | -4.991 | 1.132 | 19.61
O=C1N(Cc2cccc(F)c2F)CCCC1(O)CN1CCCOCC1 (stereo unspecified) | 8.714 | -19.76 | 6.541 | 26.21
NC(=O)CN(CC(=O)NCc1cc(F)cc(F)c1)C1CCCC1 | 3.061 | -9.902 | 5.914 | 14.88
O=C(c1cccnc1)N1CCSCC1 | -8.911 | 5.368 | 7.79 | 14.13
Clc1cncc(N2CCN(Cc3ccon3)CC2)n1 | 8 | -0.5329 | 3.458 | 12.24
O=C(N1CCCC1)C1(Cc2ccc(-c3cccs3)cc2)CCNC1 (stereo unspecified) | 13.64 | -2.938 | -1.252 | 27.54
Cc1occc1CNC(=O)N(CCCO)C1CCc2ccccc21 (stereo unspecified) | 2.642 | 4.307 | 7.333 | 14.86
Cc1nnc(NCc2ccccc2S(=O)(=O)N(C)C)c(C#N)c1C | 17.2 | -13 | -1.092 | 22.02
CC(C)CNC(=O)CNC(=O)Nc1cccc(Cl)c1-n1cccn1 | 6.637 | -9.911 | 4.31 | 13.27
COC1CCCOC12CCN(C(=O)NCCc1cccs1)CC2 (stereo unspecified) | 6.25 | -17.76 | 5.216 | 19.47
O=C(c1ccsc1)N1CCc2c(COCc3ccncc3)cncc2C1 | 9.091 | -10.66 | 1.635 | -1.905
CSC1(CNC(=O)N(C)Cc2ccc(C)s2)CCOCC1 | 4.242 | 8.554 | -6.273 | -4.444
Cc1nn(C)c(C)c1CN(C)CC1(O)CCCN(C)C1 (stereo unspecified) | 7.453 | -19.22 | 1.369 | 7.5
NC(=O)C1Cn2ccnc2C2(CCN(C(=O)c3ccncc3)CC2)O1 (stereo unspecified) | 2.116 | -5.133 | 2.715 | 10
CN(C)CCN1C(=O)CCC12CCN(C(=O)c1cccnc1)CC2 | 9.774 | 11.18 | 5.624 | 9.756
NC(=O)CCN(CC(=O)NCc1cccs1)c1ccc(F)cc1 | 6.931 | -8.57 | -5.185 | 8.696
COCCN1CCC(CN(C)c2nc3c(s2)c(C)nn3C)C1 (stereo unspecified) | -1.064 | -5.67 | -0.5888 | 16.42
Cc1cc(C(=O)N2CCC(N3CCNC3=O)CC2)nn1C(C)(C)C | 1.031 | -7.683 | 4.588 | 14.52
Cc1ccc(C)n1-c1ccsc1C(=O)NCC(=O)N1CCCC1 | 4.762 | -4.708 | -2.209 | 17.33
CC(C)c1nsc(N2CCn3c(nnc3-c3ccccc3)C2)n1 | 8.621 | -5.336 | 5.708 | 9.821
O=C1CO[C@@H]2CN(CC3CCOC3)C[C@H]2N1Cc1cccc(F)c1 (stereo partly specified) | 8.867 | 6.721 | -2.136 | 29.41
Cc1cnn(C2CN(CC(=O)NCCOc3ccccc3)C2)c1 | 1.156 | -16.66 | -0.3704 | 11.4
c1nc(N2CCOC(Cn3cncn3)C2)c2cc[nH]c2n1 (stereo unspecified) | 5.07 | -8.039 | -0.8544 | 7.826
CCOC(=O)C1CCN(c2cc(C(=O)N3CCCCC3)nc(C)n2)CC1 | 1.754 | -1.373 | 6.439 | 17.86
COc1ccc(S(=O)(=O)N2CCC[C@@H]3CN(C(=O)C4CC4)C[C@@H]32)cc1 | 0.3831 | 7.714 | -1.922 | 8.633
Cc1ccc(CN2CCN(Cc3ccc(N(C)C)nc3)CC2=O)cc1C | 18.4 | -21.74 | 2.935 | 16.39
O=C(N1CCOCC1)[C@@]12CCO[C@@H]1CCN(C1CCCC1)C2 | 0 | -4.268 | 2.434 | 15.38
Cc1ccc(CN2CCC3(CC2)C(=O)N(CC(C)C)CCN3C)o1 | 4.854 | -10.61 | 6.837 | 11.65
Cc1ccc(-c2ccc(CC3NCCN(C)C3=O)cc2)cc1 (stereo unspecified) | 2.985 | 14.66 | 0.6068 | 22.11
CCc1csc(CCNC(=O)C2CC(=O)N(C(C)C)C2)n1 (stereo unspecified) | 1.674 | 13.21 | -2.867 | 2.83
CCn1cc(NC(=O)N2CCN(CCSc3ccccc3)CC2)cn1 | 10.31 | 15.56 | 4.047 | 17.24

For reference, 4 entries once more:

Result for CN(C)S(=O)(=O)N1CCCCCC1c1cc(-c2ccc(F)cc2)no1 (stereo unspecified) was TcHisRS: -5.085%; ClpP1P2: -14.07%; PfKRS1: 2.018%; LiHisRS: 5.594%.
Result for O=C1CC(N2CCN(c3ccc(F)cc3)CC2)C(=O)N1Cc1cccs1 (stereo unspecified) was TcHisRS: 6.186%; ClpP1P2: -1.209%; PfKRS1: 0.2972%; LiHisRS: 12.64%.
Result for CC(C)c1nsc(N2CCn3c(nnc3-c3ccccc3)C2)n1 was TcHisRS: 8.621%; ClpP1P2: -5.336%; PfKRS1: 5.708%; LiHisRS: 9.821%.
Result for N#Cc1ccc(N2CCCC3(CCC(=O)N3CC3CC3)CC2)nc1 (stereo unspecified) was TcHisRS: 6.533%; ClpP1P2: 11.31%; PfKRS1: 0.9152%; LiHisRS: 11.88%.

From ChEMBL document CHEMBL3988442, “University of Dundee, Small-Polar-MMV Screening Library” (2021).